Assay results as given in publication PMC5582526.
These are yes or no findings as the source states them, for the method shown. Binding seen in cells or lysates may run through a third protein. Some results given as binding are weak or reduced against the parent protein; the word gives no strength.

The chains behind the UniProt entries cited, without tags or fusion partners.
UniProt Q15554: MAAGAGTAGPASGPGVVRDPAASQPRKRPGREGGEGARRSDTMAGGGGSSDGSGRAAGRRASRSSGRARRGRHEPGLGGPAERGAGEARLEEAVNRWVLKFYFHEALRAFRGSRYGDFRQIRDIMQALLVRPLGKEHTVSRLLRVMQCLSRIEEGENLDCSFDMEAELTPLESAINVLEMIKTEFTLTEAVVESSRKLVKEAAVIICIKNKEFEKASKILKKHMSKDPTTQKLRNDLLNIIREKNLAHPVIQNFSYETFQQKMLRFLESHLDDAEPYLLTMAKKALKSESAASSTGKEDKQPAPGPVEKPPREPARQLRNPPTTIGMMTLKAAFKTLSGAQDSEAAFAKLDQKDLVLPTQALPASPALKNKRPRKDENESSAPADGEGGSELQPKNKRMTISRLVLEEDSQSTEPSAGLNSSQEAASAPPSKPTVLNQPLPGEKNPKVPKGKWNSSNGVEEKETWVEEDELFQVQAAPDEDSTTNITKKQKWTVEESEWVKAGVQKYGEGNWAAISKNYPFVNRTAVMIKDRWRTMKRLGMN

Biological target: Telomeric repeat-binding factor 2 (TRF2), endogenous (human (endogenous in 293T)) (UniProt Q15554)
Assay: co-IP; endogenous proteins of a 293T cell lysate; IP with anti-NOLC1 or anti-TRF2 antibody; blots with anti-NOLC1 and anti-TRF2; 50 mM Tris-HCl pH 7.4, 150 mM NaCl, 1 mM EDTA, 1 mM DTT, 0.3% NP40; 4 °C

B1: Nucleolar and coiled-body phosphoprotein 1 (NOLC1), endogenous (protein, UniProt Q14978 1-699)
chain: MADAGIRRVVPSDLYPLVLGFLRDNQLSEVANKFAKATGATQQDANASSLLDIYSFWLKSAKVPERKLQANGPVAKKAKKKASSSDSEDSSEEEEEVQGPPAKKAAVPAKRVGLPPGKAAAKASESSSSEESSDDDDEEDQKKQPVQKGVKPQAKAAKAPPKKAKSSDSDSDSSSEDEPPKNQKPKITPVTVKAQTKAPPKPARAAPKIANGKAASSSSSSSSSSSSDDSEEEKAAATPKKTVPKKQVVAKAPVKAATTPTRKSSSSEDSSSDEEEEQKKPMKNKPGPYSSVPPPSAPPPKKSLGTQPPKKAVEKQQPVESSEDSSDESDSSSEEEKKPPTKAVVSKATTKPPPAKKAAESSSDSSDSDSSEDDEAPSKPAGTTKNSSNKPAVTTKSPAVKPAAAPKQPVGGGQKLLTRKADSSSSEEESSSSEEEKTKKMVATTKPKATAKAALSLPAKQAPQGSRDSSSDSDSSSSEEEEEKTSKSAVKKKPQKVAGGAAPSKPASAKKGKAESSNSSSSDDSSEEEEEKLKGKGSPRPQAPKANGTSALTAQNGKAAKNSEEEEEEKKKAAVVVSKSGSLKKRKQNEAAKEAETPQAKKIKLQTPNTFPKRKKGEKRASSPFRRVREEEIEVDSRVADNSFDAKRGAAGDWGERANQVLKFTKGKSFRHEKTKKKRGSYRGGSISVQVNSIKFDSE
binding: binds
